Molecules are shown by their SMILES.

Experiment [1] relates to MCF-7 (breast cancer cell). Description: MTT cytotoxicity assay. It counts as cell-based. The settings on record: Homo sapiens, MCF7, 72 h, three experiments, each in triplicate. The method, then:
(§1) Experiments for determining the cytotoxic activity of the compound in MTT assays were performed as previously described. The following tumor cell lines were used for this study: HCT-116 (colon cancer cell line), B16 (mouse melanoma cell line), K-562 (leukemia cell line), MDA-MB-231 (breast cancer line), and MCF-7 (breast cancer cell). Human postnatal fibroblasts were used as a normal cell line, and doxorubicin was used as a positive control. The cell lines were cultured in Dulbecco modified Eagle’s medium supplemented with 5% fetal calf serum, 2 mM Lglutamine, 100 U/mL penicillin, and […] streptomycin at 37 °C, 5% CO2 in a humidified atmosphere. Experiments were carried out on cells in the logarithmic phase of growth. The peptide was dissolved in DMSO as a 10 mM stock solution, followed by serial dilutions in water immediately before the experiment. Briefly, cells (5 × 10^3 in […] of culture medium) were plated in a 96-well plate and treated with 0.1% DMSO (blank control) or with […] of the peptide (0.10‒50 μM; each concentration in duplicate) for 72 h. […] Formazan was dissolved in DMSO, and the absorbance at 570 nm was measured. The cytotoxicity at a given EmiA concentration was calculated as the percentage of absorbance in wells with peptide-treated cells compared to that of blank control cells (100%). […]

The subject of experiment [2] is MDA-MB-231 (breast cancer line). Put plainly: MTT cytotoxicity assay. In kind it is cell-based. The settings on record: Homo sapiens, 72 h, three experiments, each in triplicate. How it is done:
as §1

Consider `COc1cccc2c1C(=O)c1c(O)c3c(c(O)c1C2=O)C[C@@](O)(C(=O)CO)C[C@@H]3O[C@H]1C[C@H](N)[C@H](O)[C@H](C)O1` [Doxorubicin], for which the IC50 (in general, the concentration that inhibits the measured activity by half) in experiment [1] was 0.5 ± 0.06 µM; in experiment [2], 0.8 ± 0.09 µM.

For the origin of these results see publication PMC7924852, “The Emericellipsins A–E from an Alkalophilic Fungus Emericellopsis alkalina Show Potent Activity against Multidrug-Resistant Pathogenic Fungi” (Journal of Fungi, 2021).
